According to the supplement of paper PMC12889115:
The other results are listed elsewhere or left out. These are raw signals, not scaled to a control.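 In the initial screen, polymyxin B was used at a concentration that permeabilizes Salmonella's outer membrane but not its inner membrane. Maximum growth was set by DMSO wells with or without polymyxin B. Since plates varied, data were ranked per plate, and compounds giving the lowest OD600 advanced as hits.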

Tested on: Salmonella enterica serovar Typhimurium SL1344
Experiment: bacterial growth OD600 after 18 h with compound and polymyxin B; higher = more bacterial growth (less inhibition)
Conditions: 50 µM, Mueller-Hinton broth

Compound	bacterial growth OD600 (polymyxin B 1 µg/mL)	bacterial growth OD600 (polymyxin B 0.75 µg/mL)
CC(c1ccon1)N(C)Cc1c(C(=O)N(C)CCc2ccccc2)nc2sccn12 (stereo unspecified)	0.925	–
COc1ccc(CC2(CCC(=O)N3CCN(C4CCCCC4)C(=O)C3)CCC(=O)N2)c2ccccc12 (stereo unspecified)	–	0.734
COCCCn1c(CN2CC[C@@H]3CCCC[C@H]3C2)cnc1S(=O)(=O)C1CCCC1	0.765	–
CCc1ccc(CN2C[C@H](O)[C@@H](N3CCOCC3)C2)cc1	–	0.831
Cc1ccc(CN2CCC(CN(C)Cc3nc4ccccc4[nH]3)CC2)o1	0.948	–
Cc1ccccc1Oc1ncccc1CNCc1ccccn1	–	1.01
COC(=O)c1ccc(CN2CCOc3ccc(C(C)(O)COc4ccccc4)cc3C2)cc1 (stereo unspecified)	–	0.014
CCNC(=O)c1cn(CC(C)C)cc(C(=O)NCc2ccc(F)cc2)c1=O	–	0.824
COCC1CCCN(Cc2nc(C(c3ccccc3)c3ccccc3)no2)C1 (stereo unspecified)	0.691	–
COc1ccc(Cc2noc(-c3ccc(N(C)Cc4ccon4)nc3)n2)cc1	0.822	–
CCc1[nH]c2c(CNC(=O)CCN3CCOCC3)cc(F)cc2c1C	0.96	–
CN(CC1Cc2ccccc2O1)C(=O)c1cn(Cc2ccccc2F)nn1 (stereo unspecified)	0.856	–
Cc1occc1C(=O)N1CCC(CCC(=O)N2CCN(c3ccccc3)CC2)CC1	0.919	–
O=C(c1ccc(N2CCSCC2)nc1)N1CCC(CCn2cccn2)CC1	–	0.879
O=C(NC1CC(=O)N(CCc2ccccc2)C1)C1CCCC1 (stereo unspecified)	1.12	–
O=C(c1cccnc1)N1CCCC(CCc2ccc(F)c(F)c2)C1 (stereo unspecified)	–	0.153

Compound	bacterial growth OD600 (polymyxin B 1 µg/mL)	bacterial growth OD600 (polymyxin B 0.75 µg/mL)
CC#CC(=O)N1CCc2[nH]nc(-c3cccc(OC)c3)c2C1	–	0.675
Cc1cc(O)nc(CNC(=O)C2(N3C[C@@H](C)O[C@@H](C)C3)Cc3ccccc3C2)n1	1.06	–
CO[C@H]1[C@H](NC(=O)c2ccncc2)c2ccccc2C12CCN(C(=O)C1=NN(C)C(=O)CC1)CC2	–	0.816
O=C(c1ccc2[nH]nnc2c1)N1CCOC(CCc2ccccc2)C1 (stereo unspecified)	–	0.786
Cc1nc(N2CCC(C(=O)NCC(C)c3ccccc3)CC2)nc2cc3c(cc12)CCC3 (stereo unspecified)	–	0.71
Cc1ccc(OCCN(C)C(=O)C2CC23CCN(Cc2c(C)[nH]c4ccccc24)CC3)cc1 (stereo unspecified)	–	0.914
Cc1cc(C(=O)N2CCC(CCC(=O)NC3CCN(Cc4ccccc4)C3)CC2)n[nH]1 (stereo unspecified)	0.948	–
Cc1cc(C)nc(CCNC(=O)c2ccc(OC3CCN(C(=O)C4CC4)CC3)cc2)n1	1.25	–
COc1ccc2c(c1)OC(C)CN(CCNC(=O)CCc1nc3ccccc3s1)C2 (stereo unspecified)	–	0.822
COc1ccc(C(=O)CCC(=O)NCC2CC(Cc3cccc(F)c3)=NO2)cc1 (stereo unspecified)	–	0.845
COc1ccc(S(=O)(=O)NCC2CCCN(Cc3ccc(C)s3)C2)cc1 (stereo unspecified)	0.791	–
CCCCn1c(CN2CCCCC2CC(=O)OCC)cnc1S(=O)(=O)CC (stereo unspecified)	–	0.96
CS(=O)(=O)NC1CC(=O)N(CC2CCCCC2)C1 (stereo unspecified)	1.06	–
O=C1O[C@@H]2CN(Cc3ccc(OCCO)cc3)C[C@@H]2N1C1CCCC1	–	0.855
COc1cc2nc(N(C)C)c(CNCc3cccc(F)c3)cc2c(OC)c1OC	–	0.742

Exported bar-delimited: nine of the compounds above
Compound | bacterial growth OD600 (polymyxin B 1 µg/mL) | bacterial growth OD600 (polymyxin B 0.75 µg/mL)
CCNC(=O)c1cn(CC(C)C)cc(C(=O)NCc2ccc(F)cc2)c1=O | – | 0.824
COCC1CCCN(Cc2nc(C(c3ccccc3)c3ccccc3)no2)C1 (stereo unspecified) | 0.691 | –
COc1ccc(Cc2noc(-c3ccc(N(C)Cc4ccon4)nc3)n2)cc1 | 0.822 | –
CCc1[nH]c2c(CNC(=O)CCN3CCOCC3)cc(F)cc2c1C | 0.96 | –
CN(CC1Cc2ccccc2O1)C(=O)c1cn(Cc2ccccc2F)nn1 (stereo unspecified) | 0.856 | –
Cc1occc1C(=O)N1CCC(CCC(=O)N2CCN(c3ccccc3)CC2)CC1 | 0.919 | –
O=C(c1ccc(N2CCSCC2)nc1)N1CCC(CCn2cccn2)CC1 | – | 0.879
O=C(NC1CC(=O)N(CCc2ccccc2)C1)C1CCCC1 (stereo unspecified) | 1.12 | –
O=C(c1cccnc1)N1CCCC(CCc2ccc(F)c(F)c2)C1 (stereo unspecified) | – | 0.153
